Data published in PMC5078790.
These are yes or no findings as the source states them, for the method shown. Binding seen in cells or lysates may run through a third protein. Some results given as binding are weak or reduced against the parent protein; the word gives no strength.

Sequences of proteins named here, by UniProt entry; tags and fusion partners are left off.
UniProt Q60631: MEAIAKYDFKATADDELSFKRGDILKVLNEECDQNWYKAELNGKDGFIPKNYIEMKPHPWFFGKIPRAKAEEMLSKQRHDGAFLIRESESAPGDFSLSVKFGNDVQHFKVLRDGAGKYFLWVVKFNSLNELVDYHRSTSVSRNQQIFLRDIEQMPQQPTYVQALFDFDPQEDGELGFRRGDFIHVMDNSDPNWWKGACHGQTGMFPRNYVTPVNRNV

Target: Grb2 (mouse (endogenous in MEFs)) (UniProt Q60631)
Experiment: co-IP; anti-Grb2 antibodies, 3 hours at 4 °C, Dynabeads protein G; lysates of dab2 HET and CKO MEFs on days 0, 1, 4, 9 of adipose differentiation; NP-40 IP buffer (1% NP-40, 150 mM NaCl, 50 mM Tris-HCl, 10 mM EDTA, pH 8.0); Western blot of Dab2, Sos1 and Grb2

Substance: Sos1 (from UniProt Q62245 1-1319)
- binding: binds
